{"sequences": {"note": "The chains behind the UniProt entries cited, without tags or fusion partners.", "UniProt P63158": "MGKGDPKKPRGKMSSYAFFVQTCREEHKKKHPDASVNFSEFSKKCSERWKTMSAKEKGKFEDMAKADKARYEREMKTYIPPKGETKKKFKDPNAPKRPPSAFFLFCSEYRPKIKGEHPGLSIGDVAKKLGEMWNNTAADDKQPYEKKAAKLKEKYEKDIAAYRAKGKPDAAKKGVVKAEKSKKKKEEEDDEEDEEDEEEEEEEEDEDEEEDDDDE"}, "source": "paper PMC6579765", "key": {"[1]": {"target": "T1, Toll-like receptor 9 (mouse (endogenous in heart tissue)) (UniProt Q9EQU3)", "T1 sequence": "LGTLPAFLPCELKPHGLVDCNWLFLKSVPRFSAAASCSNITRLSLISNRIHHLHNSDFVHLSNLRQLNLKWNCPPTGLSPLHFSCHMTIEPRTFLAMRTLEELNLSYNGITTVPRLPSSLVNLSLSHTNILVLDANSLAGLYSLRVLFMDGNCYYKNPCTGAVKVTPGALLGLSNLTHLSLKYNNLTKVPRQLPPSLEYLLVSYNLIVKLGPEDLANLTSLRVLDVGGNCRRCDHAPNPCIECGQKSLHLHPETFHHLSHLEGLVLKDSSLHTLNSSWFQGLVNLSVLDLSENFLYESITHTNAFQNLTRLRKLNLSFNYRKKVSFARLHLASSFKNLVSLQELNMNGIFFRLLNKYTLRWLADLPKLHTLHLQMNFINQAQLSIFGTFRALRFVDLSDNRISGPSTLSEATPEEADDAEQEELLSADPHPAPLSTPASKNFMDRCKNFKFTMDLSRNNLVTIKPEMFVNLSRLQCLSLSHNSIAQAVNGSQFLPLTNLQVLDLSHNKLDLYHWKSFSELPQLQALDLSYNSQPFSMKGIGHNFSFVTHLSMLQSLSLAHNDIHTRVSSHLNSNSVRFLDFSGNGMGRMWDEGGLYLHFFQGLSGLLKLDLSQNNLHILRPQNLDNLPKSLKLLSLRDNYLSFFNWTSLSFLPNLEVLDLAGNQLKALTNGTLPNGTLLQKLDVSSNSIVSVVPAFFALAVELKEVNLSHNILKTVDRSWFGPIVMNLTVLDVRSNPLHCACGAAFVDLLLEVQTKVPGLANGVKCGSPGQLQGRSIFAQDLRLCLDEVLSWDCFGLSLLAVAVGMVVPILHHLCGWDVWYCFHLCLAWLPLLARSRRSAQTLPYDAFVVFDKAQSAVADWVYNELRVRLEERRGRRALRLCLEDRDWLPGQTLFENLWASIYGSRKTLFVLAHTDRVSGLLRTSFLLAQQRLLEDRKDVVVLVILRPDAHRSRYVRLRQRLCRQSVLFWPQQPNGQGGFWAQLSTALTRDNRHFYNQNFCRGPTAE", "assay": "co-IP; heart tissue lysates of WT MI mice; IP with anti-TLR9 (sc-25468) or IgG control on Protein A/G magnetic beads, 4 °C overnight, five washes with lysis buffer; blot for HMGB1"}, "[2]": {"target": "T1, Toll-like receptor 9 (mouse (endogenous in heart tissue))", "assay": "co-IP; heart tissue lysates of WT sham-operated mice; IP with anti-TLR9 (sc-25468) or IgG control on Protein A/G magnetic beads, 4 °C overnight, five washes with lysis buffer; blot for HMGB1"}}, "note": "Results are given in words; binding and its absence hold for the method and conditions named. Binding seen in cells or lysates may run through a third protein. Some entries that bind do so weakly or less than the wild type."}
{"substance": "High Mobility Group Box 1 (from UniProt P63158 1-215)", "values": [{"measurement": "binding", "setting": "[1]", "result": "binds"}, {"measurement": "binding", "setting": "[2]", "result": "no binding (condition: sham-operated WT mice (no MI))"}]}
